# Reference: paper PMC4870678
# No signal at the amounts used counts as a negative. Tags and fusion partners may be left off the protein sequences shown. The exact form of at least one protein or probe is not confirmed. Weaker means in comparison with the reference protein, sequence or condition of that experiment.
# Biological target: T1, PBR1 (RLSB) (Arabidopsis thaliana) (UniProt Q9M9H4)
# T1 sequence (looked up): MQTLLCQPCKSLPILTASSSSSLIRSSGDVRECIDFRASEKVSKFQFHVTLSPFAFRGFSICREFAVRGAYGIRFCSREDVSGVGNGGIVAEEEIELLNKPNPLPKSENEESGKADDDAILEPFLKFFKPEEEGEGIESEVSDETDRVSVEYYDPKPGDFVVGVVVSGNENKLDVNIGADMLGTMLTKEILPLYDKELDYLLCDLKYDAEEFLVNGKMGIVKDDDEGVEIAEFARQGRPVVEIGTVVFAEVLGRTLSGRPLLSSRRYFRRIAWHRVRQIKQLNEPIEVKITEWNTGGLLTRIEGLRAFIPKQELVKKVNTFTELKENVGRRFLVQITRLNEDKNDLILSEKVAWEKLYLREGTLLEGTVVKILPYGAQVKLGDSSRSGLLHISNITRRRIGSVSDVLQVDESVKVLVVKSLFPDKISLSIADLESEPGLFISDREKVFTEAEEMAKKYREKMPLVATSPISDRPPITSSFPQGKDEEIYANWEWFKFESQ
# Test: EMSA
# Details: 20 mM HEPES pH 8.0, 50 mM KCl, 10 mM MgCl2, 0.5 mM DTT, 0.2 ug/ul tRNA, 0.1 ug/ul BSA, 4% glycerol, 30 min on ice, 6% native PAGE in 0.5x TBE at 4 C, recombinant protein, residues 1-500, protein details: 6xHis (pET28-a, BamHI/EcoRI), probe letters rebuilt from the primers and the genome
sequence,measurement,setting,value
GGGUGAUUAGUUGAUAAUUUUGUGAAAGAUUCCUGUGAAAAAGGUUAAUUAAAUCUAUUCCUAAUUUAUGUCGAGUAGACCUUGUUGUUUUGUUUUAUUGCAAGAAUUCUAAAUUCAUGACUUGUAGGGAGGGACUU [rbcL 5'-UTR RNA],binding result,"strong signal, called nonspecific, not competed by 125x cold rbcL 5'-UTR, part of a longer molecule",binds
GGGUCAUAAAUACUUUUUACUAUAUAUAAUAAGUUACGGUAUAUGAAAACAACUAUAUGCACAAAUAUGAGGGAUUGUUUUAAAUUAAAUCUUUAUACAUGAGAUUAAUUUAAUCAAUCACAUAGAUACCAAUUAU [Ycf1 3'-UTR RNA],binding result,"lower affinity than Ycf1 5'-UTR, label: biotin-16-UTP (internal, body labeled), part of a longer molecule",binds more weakly
GGGUAUCCCUUUGGUGUCAUUGACAUAAGAGAUGUCGUUUCUAGUCUAUCUCUUUCUAUUUCUAUAUAUGGAAAGUUGCAAAAUCAUCAUAUAAUAAUCCAGAAAUUGAAAUAGAAAAGAAAAAAGGGAGGUUUGUG [Ycf1 5'-UTR RNA],binding result,"150 mM NaCl, binding largely unchanged, label: biotin-16-UTP (internal, body labeled), part of a longer molecule",binds
same,binding result,"cold probe competition confirmed specificity, label: biotin-16-UTP (internal, body labeled), part of a longer molecule",binds
GGGAAUUCUAAGUAUCUAUCAUCGGUUCACUAAUUACUUGAGUGACUGUUGGCGGGUUUCUUUGUAUGUGUUGUCCGGAAAGAGGAGGACUCA [psaA 5'-UTR RNA],binding result,"no detectable binding signal, label: biotin-16-UTP (internal), part of a longer …",no binding
